# Values quoted from earlier work as cited in patent US20080269246A1, “METHOD FOR TREATING PEDIATRIC BIPOLAR DISORDER” (Pfizer Inc, priority 2003, published 2008).
# At least one structure is not confirmed: it was looked up by name or label, or the drawing left a doubt.
# Target: 5-HT2A
# Conditions: ligand [^3H]ketanserin; central nervous system tissue; (n) in cell
smiles,measurement,value
"O=C1Cc2cc(CCN3CCN(c4nsc5ccccc45)CC3)c(Cl)cc2N1 [Ziprasidone, 5-(2-(4-(1,2-benzisothiazol-3-yl)piperazinyl)ethyl)chlorooxindole]",affinity for receptor 5-HT2A,9.38 ± 0.03 (5)
